Data taken from ChEMBL document CHEMBL3988442, “University of Dundee, Small-Polar-MMV Screening Library” (2021).

The chains behind the UniProt entries cited, without tags or fusion partners.
UniProt E9BF75, entry or part of it: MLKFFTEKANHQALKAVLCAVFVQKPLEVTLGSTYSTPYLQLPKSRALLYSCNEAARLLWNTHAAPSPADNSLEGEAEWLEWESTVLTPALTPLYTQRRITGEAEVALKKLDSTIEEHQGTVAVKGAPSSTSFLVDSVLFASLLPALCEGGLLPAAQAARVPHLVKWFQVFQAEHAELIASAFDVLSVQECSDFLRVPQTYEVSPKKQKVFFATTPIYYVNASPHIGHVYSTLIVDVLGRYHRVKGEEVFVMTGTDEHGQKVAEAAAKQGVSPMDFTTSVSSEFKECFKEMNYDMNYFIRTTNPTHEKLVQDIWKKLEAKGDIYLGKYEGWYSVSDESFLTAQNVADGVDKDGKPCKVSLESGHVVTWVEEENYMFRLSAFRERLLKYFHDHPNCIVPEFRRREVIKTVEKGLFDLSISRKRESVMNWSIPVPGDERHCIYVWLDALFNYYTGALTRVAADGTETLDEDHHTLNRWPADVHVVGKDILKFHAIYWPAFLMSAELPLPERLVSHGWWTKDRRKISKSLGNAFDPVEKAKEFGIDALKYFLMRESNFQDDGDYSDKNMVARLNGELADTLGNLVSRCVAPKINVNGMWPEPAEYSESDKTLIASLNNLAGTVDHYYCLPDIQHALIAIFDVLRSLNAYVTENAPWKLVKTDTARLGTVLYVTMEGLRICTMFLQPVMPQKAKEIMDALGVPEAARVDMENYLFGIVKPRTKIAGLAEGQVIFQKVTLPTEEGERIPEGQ

A: 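Assay on Mycobacterium tuberculosis, filed only as a heat shock assay from Cornell; the read-out is not stated. The concentration is filed as 10 mM, unlikely as a test dose, so the dose is not known. Direction is inferred from retests: higher values go with stronger inhibition. Of about 69,000 compounds tested this way, about 930 (1.4%) reached 50% or more in at least one test.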
B: 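Primary screen of methionyl-tRNA synthetase; the read-out is not stated. Target: Methionyl-tRNA synthetase (putative), Leishmania donovani (UniProt E9BF75). The test concentration is not given. Values are per cent inhibition. Size under these conditions: about 68,000 compounds, about 24 of them at 50% or above in at least one test.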
C: 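Whole-cell assay for inhibitors of Mycobacterium tuberculosis growth, labelled Cornell in the record; the read-out is not stated. The concentration is filed as 10 mM, unlikely as a test dose, so the dose is not known. The record gives no direction; compounds strong in two other growth screens of this library score well above the rest, so higher reads as stronger inhibition. About 53,000 compounds were tested under these conditions; 1.7% (about 900) showed 50% or more at least once.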

All values are in %.
The record does not define 0% and 100%; most values in the screen are far below 50% and negative numbers occur (in some assays of this library far below -100).
Compounds were drawn at random from those tested, without regard to their results.

Compound: Cc1ccc(CNC2CCN(CCc3ccncc3)CC2)cc1C
A: 9.362%
B: 12.38%
C: -60.71%

Compound: CC(C)n1[nH]c(=O)c2c1NC(=O)CC2c1cccc2cccnc12 (configuration not stated)
A: -18.27%
B: 5.199%
C: -45.96%

Compound: CCN(Cc1nc2c(cnn2C)c(=O)[nH]1)c1ccccc1C
A: -7.156%
B: 11.35%
C: 7.6%

Compound: Cc1nn(CC(O)CN2CCc3ccccc3C2)c(=O)c2ccccc12 (configuration not stated)
A: -14.17%
B: 11.11%
C: 17.97%

Compound: Cc1nc(Nc2ncc(C)s2)cc(C2CCCN2)n1 (configuration not stated)
B: 12.11%

Compound: [H][C@@]12CN(S(C)(=O)=O)C[C@]1(C(=O)NC)CCC21CCNCC1
A: -27%

Compound: O[C@]12CCNC[C@H]1CN(c1ncccc1Cl)CC2
B: 12.69%

Compound: [H][C@@]12CC(=O)N(Cc3csc(C)n3)[C@@]1([H])CCN2S(=O)(=O)CC
A: -6.323%
C: -15.91%

Compound: CC(CC(=O)N1CCN(c2cnccn2)CC1)c1ccc(F)cc1 (configuration not stated)
A: -9.966%
B: 8.993%
C: 31.02%

Compound: CC(C)(C)c1csc(CCNC(=O)C(c2ccccc2)n2cnnn2)n1 (configuration not stated)
A: -3.237%
B: 6.434%
C: 11.39%

Compound: O=C(O)C(F)(F)F.O=C(c1cscn1)N1CCC2(CN(Cc3ccoc3)C2)C1
A: -1.882%
C: 9.424%

Compound: c1ccc(CN2CCCC[C@H]3CN(c4ncccn4)C[C@H]32)cc1
B: 10.64%

Compound: Cl.O=C(Nc1cc(C(F)(F)F)c[nH]c1=O)C1CCCCN1 (configuration not stated)
A: -2.511%
C: 41.96%

Compound: CCCC(=O)N1CCN(c2cc(-n3cnc(C)c3C)nc(C)n2)CC1
A: 10.16%
B: 8.511%
C: 4.306%

Compound: O=C(N1CCC(O)(C(F)(F)F)C1)C1(c2ccc(Cl)cc2)CC1 (configuration not stated)
A: 1.232%
B: 8.101%
C: -28.64%

Compound: CN1CCC(N2CCN(C(C(=O)O)c3cccc4c3OCC4)CC2)CC1 (configuration not stated)
A: -49.97%
B: 8.505%
C: 5.63%

Compound: Cc1cnn(CC2CN(Cc3nnc(C4CC4)n3C)CCO2)c1 (configuration not stated)
A: -6.191%
B: 13.69%
C: 7.381%

Compound: CN1CCC(C(=O)N2CCC(c3ccc4c(N)n[nH]c4n3)CC2)CC1
A: 15.88%
B: 7.188%
C: -33.75%

Compound: Cc1cnn(CCNCC(O)COc2ccc3ccccc3c2)c1 (configuration not stated)
A: -10.57%
B: 28.45%

Compound: Cl.Cl.Cn1cc(C(=O)NCc2cncc3c2CCN(CC2CC2)C3)cn1
A: -9.02%
C: -18.44%

Compound: c1ccc(OCC2CC2)c(CNC2CCc3ncnn3C2)c1 (configuration not stated)
A: -6.806%
B: 8.229%

Compound: FC(F)(F)Cn1nnnc1SCCN1CCCCC1
A: 2.524%
B: 0.2725%
C: 6.674%

Compound: CCC(C)NC(=O)CS(=O)(=O)Cc1ccccc1Cl (configuration not stated)
A: -5.393%
B: -0.2688%
C: 2.34%

Compound: Cc1csc(C(Cc2ccsc2)NC(=O)Cn2cccnc2=O)n1 (configuration not stated)
A: -16.84%
B: -7.292%
C: -23.42%

Compound: CC(C)N(C)Cc1cnc2n1CCN(Cc1ccsc1)C2
B: 10.38%

Compound: CC(NC(=O)NCc1cccs1)c1ccc2c(c1)CCC(=O)N2 (configuration not stated)
A: -0.668%
B: 18.18%

Compound: O=C(c1cccc2c1OCO2)N1CCCC1Cn1cccn1 (configuration not stated)
A: -4.119%
B: 15.97%

Compound: Cc1n[nH]c(C)c1CC(=O)N1CC[C@@](C)(O)[C@@H](Cc2ccccc2)C1
A: -6.775%
B: 15.66%
C: 18.37%

Compound: CCc1cc(CN2CCCCC2c2ccc(F)cc2)on1 (configuration not stated)
A: 28.31%
B: 14.85%

Compound: Cc1cc(C)n(CC2CCCCN2C(=O)c2ccc3nncn3c2)n1 (configuration not stated)
A: -13.6%
B: 20.28%

Compound: O=C(c1cnc2ccc(F)cc2c1NCc1ccco1)N1CCCC1
A: -17.74%
B: -2.145%
C: -10.47%

Compound: O=c1ccc2c([nH]1)CCN(S(=O)(=O)c1ccc3c(c1)OCCO3)C2
A: 2.337%
B: 10.07%
C: 32.17%

The first 3 entries again:

| Compound | A | B | C |
|---|---|---|---|
| `Cc1ccc(CNC2CCN(CCc3ccncc3)CC2)cc1C` | 9.362% | 12.38% | -60.71% |
| `CC(C)n1[nH]c(=O)c2c1NC(=O)CC2c1cccc2cccnc12` (configuration not stated) | -18.27% | 5.199% | -45.96% |
| `CCN(Cc1nc2c(cnn2C)c(=O)[nH]1)c1ccccc1C` | -7.156% | 11.35% | 7.6% |